Common to all, as to assay: SEC; HiPrep 16/60 Superdex 200; 25 mM HEPES pH 7.0, 10 mM MgCl2, 100 mM KCl, 1 mM DTT; 1 mL/min; Ni-affinity eluted fractions loaded; both purified
Background: Size exclusion chromatography separates by hydrodynamic size, large species first.

The target in assay [1] is CsTPS16CC, germacrene-B synthase (Cannabis sativa).
The target in assay [2] is CsTPS9FN, β-caryophyllene/α-humulene synthase (Cannabis sativa).
The target in assay [3] is CsTPS5FN, β-myrcene/(-)-α-pinene synthase (Cannabis sativa).
In assay [4] the target is CsTPS19BL, nerolidol/linalool synthase (Cannabis sativa).
Assay [5] has as its target CsTPS20CT, hedycaryol synthase (Cannabis sativa).

The source of these data is publication PMC12256043, “Integrated platform for structural and functional analysis of terpene synthases of Cannabis sativa” (PeerJ, 2025).

No constants are given. Whether binding was seen depends on the method and setting.

B1: CsTPS16CC, germacrene-B synthase (enzyme, UniProt A0A4Y5L9K3 1-571)
chain: MSSQVLASSQKNDKTQNIIRPTTKFHPPIWGDRFLHYNISEQELEYKEGQVEELKEVVRKEIFHGNNKRNIINVSKQLKLIDDVERLGLSYHFESEIEKKLQHIYEITTNNIDHQDQHYYYSNHDEDLHDVSIRFRLLRQHGFNISSNIFEKFKDESGKFKESLKSDIEGMLSLYEASYLSYVEENILDEALAFTTTNLKLVANKKEHPLSHEISLALYRPLRKTLVRLYARHYISIYEKQPSHNKVLLQFAKLDFNLLQSLHKKELSEISRWWKELDLANKLPFARNRIVELYLWILGVFHEPQFSLARKILIKAISMASVADDIYDAYGTFEELELLTEAILRWDISFIDKLSPDYLKTYYKVFLNSYEECEKDLKKEERYKLHYAKESMKKLIQAYFHEAQWLNQGHFPSFDEHLKVSFVSSGYPMLIETSFVGMQDVKTNQVFEWLSTQPKIFRACTIISRFMDDLVSRKFEQERNHVPSTVDCYMKQYGVSEQEACDELNKQVVNLWKEINQEFLRPTSMPSSILVRILNFTKVLDIIYKEGDGYTHVGKLVKDSVAALLIDPIPL
On to B1, for which, in assay [1], the binding entry was “no binding”.

B2: CsTPS9FN, β-caryophyllene/α-humulene synthase (enzyme, UniProt A0A7J6HK32 1-556)
chain: MSYQVLASSQNDKVSKIVRPTTTYQPSIWGERFLQYSISDQDFSYKKQRVDELKEVVRREVFLECYDNVSYVLKIVDDVQRLGLSYHFENEIEKALQHIYDNTIHQNHKDEDLHDTSTRFRLLRQHGFMVSSNIFKIFKDEQGNFKECLITDIPGLLSLYEASHLSYIGENILDEALAFTTTHLHQFVKNEKTHPLSNEVLLALQRPIRKSLERLHARHYISSYENKICHNKTLLELAKLDFNLLQCLHRKELSQISRWWKEIDFVHKLPFARDRIVELYLWLLGVFHEPELSLARIISTKVIALASVADDIYDAYGTFEELELLTESINRWDLNCADQLRPECLQTFYKVLLNCYEEFESELGKEESYKVYYAREAMKRLLGAYFSEARWLHEGYFPSFDEHLKVSLISCGYTMMIVTSLIGMKDCVTKQDFEWLSKDPKIMRDCNILCRFMDDIVSHKFEQQRDHSPSTVESYMRQYGVSEQEACDELRKQVINSWKEINKAFLRPSNVPYPVLSLVLNFSRVMDLLYKDGDGYTHIGKETKNSVVALLIDQIP
Take B2: the binding result in assay [2] is “no binding”.

B3: CsTPS5FN, β-myrcene/(-)-α-pinene synthase (enzyme, UniProt A0A1V0QSG0 1-573)
chain: MSLSGLISTTTFKEQPAIVRRSGNYKPPLWDAHFIQSLQVIYTEESYGKRINELKEDVRRILEKEAENPLVKLEQINDLSRLGISYHFEDQIKAILNLTYNNNNALWKKDNLYATALHFKLLRQYGFNPVSSEIFNAFKDEKKEFKESLSKDVKGMVCLYEASFYSFRGEPILDEARDFTTKHLKQYLMMTRQGQNVDHDDDNDLMVKLVEHALELPVHWRMKRLEARWFIDMYAEMSHHHHMNSTFLQLAKLDFNVVQSTYQEDLKHVVRWWKTTSLGERLPFARDRIVEIFLWSVGLKFEPQFRYCRKMLTKIGQLVTTMDDIFDVYGTLDELSLFQHALGRWDINTIDQLPDYMKIFFLATYNVVNEMAYDVLKQNGILIIKYLKKTWTDLCKCYMLEANWYHSGYTPSLEEYIKNGWISIAEPLILVNLYCLITNPIKEDDIDCLLQYPTFIRISGIIARLVDDLGTSSDELKRGDNPKSIQCYMKENGICDEKNGREHIRNLISETWKEMNEARVGESPFSQAFIETAIDFVRTAMMIYQKEQDGVGTNIDHYTKDGIISLFFTSIPI
On to B3, for which the binding result in assay [3] is recorded as “no binding”.

B4: CsTPS19BL, nerolidol/linalool synthase (enzyme, UniProt A0A4Y5QZ62 1-554)
chain: MALSIMSSYASFRPFKPSSSLSSSQNIIRNFDENSKYHIRSNGDLTPQKDLDKYRDVLRKADPFDEGLKMIDAIQRLGIDYIFEEEIDKIIQSQSAYKFFREFEHDHHHHQDLYDVALRFRLLRQHGHFVPADIFNKYKDNNKGCFDTRLREDIKGLLSLYEASHLCIEGENILDEAALFSAQHLEASMTRLHRYDQYQAKYVATTLQNPTHKSLSKFTAKDLFGVYPSENGYINLFQQLAKVEFNRVQSLHRMEIDKVTRWWRDIGLAKELTFARDQPVKWYIWSMACLTDPILSKQRVALTKSISFIYVIDDIFDMYSSLDELILFTQAVSSWEYSAIEKLPDSMKTCFKALDNMINESSHTIYQKRGWSPLHSLRKTWASLCEAFLVEAKWFASRHVPKAKEYLENGVVSSGVHVVLVHIFVLLDETSLTQKTLDFVENMPSIITSTASILRLWDDFGSAKDENQEGHDGSYVECYMKELGGSVEDAREEMMEKISDAWKCLNKECILRNPAFPPPFLKASLNLARLVPLMYNYDHNQRLPHLEEHIKSLL
For B4, the binding entry in assay [4] was “no binding”.

B5: CsTPS20CT, hedycaryol synthase (enzyme, UniProt A0A4Y5QVX6 1-551)
chain: MSNIQVLASSQLSDKIIARPTTKFHPSIWGDRFLHYNISEQDLVCKQEKVEELIQVVKKEILSSNHDQLKLIDNLQRLGLSYHFESEIEKLLEQLSITHHQNHHDLHDASLWFRLLRQHGFNVSSSIFEKFKDEEGNFKESLITDVPGLLSLYEASHLSYVGESILDEALAFTTTHLKAIVANSKDHPLSHQISIVLHRPLRKTIERLHARFYISIYEKDASHNKLLLELAKLDFNLLQCFHKKELSEITRWWKEHEFAKKFPFARDRMVELYFWILGVYYEPKYSRARKLLTKVIALTSITDDIYDAYGTIDELQLLTKAIQRWDINCMDKLKQEYLKTYYKVMLDSYEEFEKELKKEELYKLEYAKEEMKRIIGGYFEEARWLNEGYFPSFDEHLRVSYVSSGNVLLIATSFVGMHDVVTHETLDWLSKDPKIVSASTLLSRFMDDIGSRKFEQKRNHIPSTVDCYMKQYGVSEEEAIKELNKRVDTHWKEINEDFIRPAVVPFPILVRVLNFTKIVDLLYKEGDDQYTNVGKVLKESIAALLIDSIPL
B5: in assay [5], the binding entry is on record as “no binding”.
